# Measurements: patent US7718671B2, “Substituted arylthiourea derivatives useful as inhibitors of viral replication” (Achillion Pharmaceuticals, Inc., priority 2003, dated 2010)
# Some of these results come from one statement about several compounds together.
# Tested on: Hepatitis C replicon
# Assay: HCV replicon assay (NPT level by captured ELISA in replicon-containing cells)
# Type: cell-based, Hepatitis C virus
# Conditions: Huh-7 HCV replicon-containing cells, three days incubation; call rule not given here
# Experimental: The compounds claimed herein were tested for the ability to inhibit viral replication of the Hepatitis C replicon in cultured cells in which the HCV replicon construct has been incorporated. The HCV replicon system was described by Bartenschlager, et. al (Science, 285, pp. 110-113 (1999)). The replicon system is predictive of in vivo anti-HCV activity; compounds that are active in humans uniformly evidence activity in the replicon assay.
# HCV replicon-containing cells are treated with different concentrations of interferon alpha, a known inhibitor of HCV replication, as a positive control and with different concentrations of the test compound. The replicon assay system includes Neomycin Phosphotransferase (NPT) as a component of the replicon itself in order to detect the transcription of replicon gene products in the host cell. Cells in which the HCV is actively replicating have high levels of NPT; the level of NPT is proportional to HCV replication. […] The NPT level of each sample is measured using a captured ELISA.
# A protocol for testing compounds for the ability to inhibit viral replication of the Hepatitis C replicon cultured cells in which the replicon construct has been incorporated, follows.
# 9A. HCV Replicon and Replicon Expression
# The HCV genome consists of a single ORF that encodes a 3000 amino acid polyprotein. The ORF is flanked on the 5′ side by an untranslated region that serves as an internal ribosome entry site (IRES) and at the 3′ side by a highly conserved sequence necessary for viral replication (3′-NTR). The structural proteins, necessary for viral infection, are located near the 5′ end of the ORF. The non-structural proteins, designated NS2 to NS5B comprise the remainder of the ORF.
# The HCV replicon contains, 5′-3′, the HCV-IRES, the neomycin phosphotransferase (neo) gene, the IRES of encephalomyocarditis virus, which directs translation of HCV sequences NS3 to NS5B, and the 3′-NTR. The sequence of the HCV replicon has been deposited in GenBank (Accession no. AJ242652).
# The replicon is transfected into Huh-7 cells using standard methods such as electroporation.
# The equipment and materials include, but are not limited to, Huh-7 HCV replicon-containing cells, maintenance media (DMEM (Dulbecco's modified Eagle media) supplemented with 10% FBS, L-glutamine, non-essential amino acids, penicillin (100 units/ml), streptomycin (100 micrograms/ml), and 500 micrograms/ml of Geneticin G418), screening media (DMEM supplemented with 10% FBS, L-glutamine, and non-essential amino acid, penicillin (100 units/ml) and streptomycin (100 micrograms/ml)), 96 well tissue culture plates (flat bottom), 96 well plates (U bottom for drug dilution), Interferon alpha for positive control, fixation reagent (such as methanol: acetone), primary antibody (rabbit anti-NPTII), secondary antibody: Eu—N1l, and enhancement solution.
# HCV replicon-containing cells support high levels of viral RNA replicon replication when their density is suitable. Over confluency will cause a decrease of viral RNA replication. Therefore, cells must be kept growing in log phase in the presence of 500 micrograms/ml of G418. Generally, cells should be passed twice a week at 1: 4-6 dilution. Cell maintenance is conducted as follows:
# HCV replicon-containing cells are examined under a microscope to ensure that cells growing well. Cells are rinsed once with PBS and 2 ml trypsin is added. The cell/trypsin mixture is incubated at 37° C. in a CO2 incubator for 3-5 minutes. After incubation 10 ml of complete media is added to stop the trypsinization reaction. Cells are blown gently, put into a 15 ml tube, and spun at 1200 rpm for 4 minutes. The trypsin/medium solution is removed. Medium (5 ml) is added and the cells are mixed carefully. The cells are counted.
# The cells are then seeded onto 96-well plates at a density of 6000-7500 cells/100 ul/well (6-7.5×10^5 cells/10 ml/plate). The plates are then incubated at 37° C. in a 5% CO2 incubator. […]
row,SMILES,inhibition of HCV replicon replication
1,"NC(=S)NCc1cccc(-c2ccccc2)c1 [Compound 56, 1-(3-phenylbenzyl)thiourea]",active inhibitors of HCV replicon replication
2,"NC(=S)NC1(c2ccc(Oc3ccccc3)cc2)CCCC1 [Compound 45, 1-(1-(4-phenoxyphenyl)cyclopentyl)thiourea]",active inhibitors of HCV replicon replication
3,"CCCCCCC12CCC(c3ccc(NC(N)=S)cc3)(CC1)CC2 [Compound 30, 1-(4-(4-hexylbicyclo[2.2.2]octan-1-yl)phenyl)thiourea]",active inhibitors of HCV replicon replication
4,"NC(=S)Nc1cccc(NCC2CCCCC2)c1 [Compound 52, 1-(3-(cyclohexylmethylamino)phenyl)thiourea]",active inhibitors of HCV replicon replication
5,"NC(=S)Nc1ccc(N2CCc3ccccc3C2)c(F)c1 [Compound 24, 1-(3-fluoro-4-(3,4-dihydro-isoquinolin-2(1H)-yl)phenyl)thiourea]",active inhibitors of HCV replicon replication
6,"NC(=S)Nc1ccc(N2CCC(c3ccccc3)CC2)c(F)c1 [Compound 54, 1-(3-fluoro-4-(4-phenylpiperidin-1-yl)phenyl)thiourea]",active inhibitors of HCV replicon replication
7,"NC(=S)Nc1ccc(N2CCc3ccccc3C2)cc1 [Compound 25, 1-(4-(3,4-dihydro-isoquinolin-2(1H)-yl)phenyl)thiourea]",active inhibitors of HCV replicon replication
8,"NC(=S)Nc1cccc(OCc2ccc(-c3ccccc3)cc2)c1 [Compound 15, 1-(3-(4-phenylbenzyloxy)phenyl)thiourea]",active inhibitors of HCV replicon replication
9,"C[C@@H](Oc1cccc(NC(N)=S)c1)c1ccccc1 [Compound 20, 1-(3-((R)-1-phenylethoxy)phenyl)thiourea]",active inhibitors of HCV replicon replication
10,"Cc1ccc(OCc2ccccc2)cc1NC(N)=S [Compound 37, 1-(5-(benzyloxy)-2-methylphenyl)thiourea]",active inhibitors of HCV replicon replication
11,"CCCCCC[C@H]1CC[C@H](c2ccc(NC(N)=S)cc2)CC1 [Compound 29, 1-(4-((1s,4r)-4-hexylcyclohexyl)phenyl)thiourea]",active inhibitors of HCV replicon replication
12,"NC(=S)Nc1ccc(OCC2CCCCC2)cc1 [Compound 8, 1-(4-Cyclohexylmethyloxy-phenyl)-thiourea]",active inhibitors of HCV replicon replication
13,"NC(=S)Nc1cccc(Oc2ccccc2)c1 [Compound 3, 1-(3-Phenoxy-phenyl)-thiourea]",active inhibitors of HCV replicon replication
14,"CCCCC#Cc1ccc(NC(N)=S)cc1 [Compound 33, 1-(4-(hex-1-ynyl)phenyl)thiourea]",active inhibitors of HCV replicon replication
15,"CCOC(=O)C1(c2ccccc2)CCN(c2cccc(NC(N)=S)c2)CC1 [Compound 18, ethyl 4-phenyl-1-(3-thioureidophenyl)piperidine-4-carboxylate]",active inhibitors of HCV replicon replication
16,"NC(=S)Nc1ccc(OCc2ccccc2)cc1 [Compound 28, 1-(4-(benzyloxy)phenyl)thiourea]",active inhibitors of HCV replicon replication
